Assay results as given in the supplement of paper PMC4635364.
Where a name gives a salt, the structure may show the parent alone. The list shows a part of the results. This data set is noisy: repeats of one test often differ as much as different tests do.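 ReNCell VM, a human fetal ventral-midbrain neural progenitor line, was differentiated without mitogens. Blinded raters scored images stained for doublecortin (early neurons) or tyrosine hydroxylase (dopaminergic neurons) against untreated wells (0 = no change). Scores were averaged across repeats and both raters, and compounds averaging 2 or more were selected as hits for retesting.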

Test system: ReNCell VM
Assay: neuronal differentiation score (DCX+ cell fraction vs untreated, manual image score) (score (-3 to 3)); higher = more neuronal differentiation
Conditions: library: Tocriscreen; 2 uM; 2 weeks

Row | SMILES | neuronal differentiation score
1 | CNc1cc2c(Nc3cccc(Br)c3)ncnc2cn1 | inactive: 0
2 | Nc1nc(NCC2CCC(CNS(=O)(=O)c3cccc4ccccc34)CC2)nc2ccccc12 (configuration not stated) | inactive: 0
3 | O=C(/C=C/c1ccc(O)c(O)c1)O[C@H](Cc1ccc(O)c(O)c1)C(=O)O [Rosmarinic acid] | inactive: 0

Test system: ReNCell VM
Assay: dopaminergic neuron differentiation score (TH+ cell fraction vs untreated, manual image score) (score (0 to 3)); higher = more TH+ dopaminergic neuron differentiation
Conditions: library: LOPAC; 2 uM; 4 weeks; BDNF 10 ng/ml + GDNF 10 ng/ml

Row | SMILES | dopaminergic neuron differentiation score
4 | Cc1cccc(C)c1OCC(C)N (configuration not stated) [Mexiletene hydrochloride] | inactive: 0
5 | Cc1nc2c([nH]1)c(=O)n(C)c(=O)n2Cc1ccco1 [Furafylline] | inactive: 0
6 | COC(=O)C(C)(N)Cc1ccc(O)cc1 (racemic) [alpha-Methyl-DL-tyrosine methyl ester hydrochloride] | inactive: 1
7 | C/C=C1\C(=O)C[C@H]2[C@@H]3CCC4=CC(=O)CC[C@]4(C)[C@H]3CC[C@]12C [(Z)-Guggulsterone] | inactive: 0
8 | CC[n+]1c(/C=C/C=C2/N(C)c3ccccc3C2(C)C)sc2ccccc21 | inactive: 0
9 | Cc1cc(O)c2c(c1)C(=O)c1cc(O)cc(O)c1C2=O [Emodin] | inactive: 0
10 | c1ccc2c(c1)CCC[C@H]2Nc1nc2ccccc2[nH]1 [NS8593 hydrochloride] | inactive: 0

Same assay, conditions: library: Phytochemical; 2 uM; 4 weeks; BDNF 10 ng/ml + GDNF 10 ng/ml

Row | SMILES | dopaminergic neuron differentiation score
11 | COc1cc(O)cc(O)c1C(=O)/C=C/c1ccccc1 [Cardamonin] | inactive: 0
12 | COc1c2c(c(OC)c3c(=O)c4ccccc4[nH]c13)OCO2 [Xanthevodine] | inactive: 0
13 | COc1ccc2c(OC)c3ccoc3nc2c1OC [Skimmianine] | inactive: 0

Same assay, conditions: library: Prestwick; 2 uM; 4 weeks; BDNF 10 ng/ml + GDNF 10 ng/ml

Row | SMILES | dopaminergic neuron differentiation score
14 | CC(=O)Nc1c(I)c(C(=O)N[C@H]2C(O)O[C@H](CO)[C@@H](O)[C@@H]2O)c(I)c(N(C)C(C)=O)c1I (some centres not stated) [Metrizamide] | inactive: 0
15 | Cc1c(Cl)cccc1Nc1ncccc1C(=O)O [Clonixin Lysinate] | inactive: 0
16 | C[C@H]1C[C@@H]2[C@H]([C@@H](O)C[C@@]3(C)[C@H]2CC[C@]3(O)C(=O)CO)[C@@]2(C)C=CC(=O)C=C12 [Methylprednisolone, 6-alpha] | inactive: 0
17 | CC(C)NC[C@H](O)COc1cccc2ccccc12 [(S)-propranolol hydrochloride] | inactive: 0
18 | COc1cccc(N(C)C(=S)Oc2ccc3c(c2)CCCC3)n1 [Liranaftate] | inactive: 0
19 | CCN1CCCC(OC(=O)C(c2ccccc2)c2ccccc2)C1 (configuration not stated) [Piperidolate hydrochloride] | inactive: 0

Same assay, conditions: library: Spectrum; 2 uM; 4 weeks; BDNF 10 ng/ml + GDNF 10 ng/ml

Row | SMILES | dopaminergic neuron differentiation score
20 | CC(=O)[C@H]1CC[C@H]2[C@@H]3CC=C4C[C@@H](OC(=O)CCC(=O)O)CC[C@]4(C)[C@H]3CC[C@]12C | inactive: 0
21 | Cc1c(-c2cnccn2)ssc1=S | inactive: 0
22 | O=C(CCCCCCCCCCCCC1CCCC1)Nc1ccc(S(=O)(=O)c2ccc(NC(=O)CCCCCCCCCCCCC3CCCC3)cc2)cc1 | inactive: 0
23 | CN[C@@H]1[C@@H](O)[C@@H](O[C@@H]2[C@@H](O)[C@H](O[C@H]3OC(CN)=CC[C@H]3N)[C@@H](N)C[C@H]2N)OC[C@]1(C)O | inactive: 0
24 | C[N+](C)(C)CCO.[Cl-] | inactive: 0
25 | CC[C@H](C)C(=O)O[C@H]1C[C@@H](C)C=C2C=C[C@H](C)[C@H](CC[C@@H]3C[C@@H](O)CC(=O)O3)[C@H]21 | inactive: 0
26 | COc1c(OC)c2occc2c2oc(=O)ccc12 | inactive: 0
27 | COc1ccc(Cl)cc1C(=O)NCCc1ccc(S(=O)(=O)NC(=O)NC2CCCCC2)cc1 | inactive: 0
28 | CC1(C)S[C@@H]2[C@H](NC(=O)C(C(=O)O)c3ccccc3)C(=O)N2[C@H]1C(=O)O (some centres not stated) | inactive: 0
29 | CC(C)=CCc1c2c(c3occ(-c4ccc(O)c(O)c4)c(=O)c3c1O)C=CC(C)(C)O2 | inactive: 0
30 | CCOC(=O)C1=C(C)NC(C)=C(C(=O)OC)C1c1cccc(Cl)c1Cl (configuration not stated) | inactive: 0
31 | Nc1nc(N)c2nc(CNc3ccc(C(=O)N[C@@H](CCC(=O)O)C(=O)O)cc3)cnc2n1 | inactive: 0
32 | Cc1c(C(=O)O)c(O)cc2c1C(=O)c1c(O)c([C@@H]3O[C@H](CO)[C@@H](O)[C@H](O)[C@H]3O)c(O)c(O)c1C2=O | inactive: 0
33 | Clc1cccc(Cl)c1NC1=NCCN1 | inactive: 0
34 | C[C@H]1COc2c(N3CCN(C)CC3)c(F)cc3c(=O)c(C(=O)O)cn1c23 | inactive: 0
35 | CCC(CCC(C)C1CCC2C3CCC4CC(O)CCC4(C)C3CCC12C)C(C)C (configuration not stated) | inactive: 0
36 | C[C@H](CCC(=O)O)[C@H]1CC[C@H]2[C@@H]3[C@H](O)C[C@@H]4C[C@H](O)CC[C@]4(C)[C@H]3CC[C@]12C | inactive: 0
37 | CCCCCOC(=O)Nc1nc(=O)n([C@@H]2O[C@H](C)[C@@H](O)[C@H]2O)cc1F | inactive: 0
38 | COc1c(O)cccc1O | inactive: 0
39 | CCCCOc1ccc(CC(=O)NO)cc1 | inactive: 0

A draw from above in order of SMILES length, rising.
Row | SMILES | dopaminergic neuron differentiation score
35 | CCC(CCC(C)C1CCC2C3CCC4CC(O)CCC4(C)C3CCC12C)C(C)C (configuration not stated) | inactive: 0
36 | C[C@H](CCC(=O)O)[C@H]1CC[C@H]2[C@@H]3[C@H](O)C[C@@H]4C[C@H](O)CC[C@]4(C)[C@H]3CC[C@]12C | inactive: 0
23 | CN[C@@H]1[C@@H](O)[C@@H](O[C@@H]2[C@@H](O)[C@H](O[C@H]3OC(CN)=CC[C@H]3N)[C@@H](N)C[C@H]2N)OC[C@]1(C)O | inactive: 0

Same assay, conditions: library: Tocriscreen; 2 uM; 4 weeks; BDNF 10 ng/ml + GDNF 10 ng/ml

Row | SMILES | dopaminergic neuron differentiation score
40 | CNc1cc2c(Nc3cccc(Br)c3)ncnc2cn1 | inactive: 0
41 | Nc1nc(NCC2CCC(CNS(=O)(=O)c3cccc4ccccc34)CC2)nc2ccccc12 (configuration not stated) | inactive: 0
42 | O=C(/C=C/c1ccc(O)c(O)c1)O[C@H](Cc1ccc(O)c(O)c1)C(=O)O [Rosmarinic acid] | inactive: 0
